Test results reported in PMC8867111.
Results are given in words; binding and its absence hold for the method and conditions named. Where a sequence is shown, tags or fusion partners need not be part of it.

Protein sequences, listed by entry. Tags and fused reporters are not part of them.
UniProt Q9Y572: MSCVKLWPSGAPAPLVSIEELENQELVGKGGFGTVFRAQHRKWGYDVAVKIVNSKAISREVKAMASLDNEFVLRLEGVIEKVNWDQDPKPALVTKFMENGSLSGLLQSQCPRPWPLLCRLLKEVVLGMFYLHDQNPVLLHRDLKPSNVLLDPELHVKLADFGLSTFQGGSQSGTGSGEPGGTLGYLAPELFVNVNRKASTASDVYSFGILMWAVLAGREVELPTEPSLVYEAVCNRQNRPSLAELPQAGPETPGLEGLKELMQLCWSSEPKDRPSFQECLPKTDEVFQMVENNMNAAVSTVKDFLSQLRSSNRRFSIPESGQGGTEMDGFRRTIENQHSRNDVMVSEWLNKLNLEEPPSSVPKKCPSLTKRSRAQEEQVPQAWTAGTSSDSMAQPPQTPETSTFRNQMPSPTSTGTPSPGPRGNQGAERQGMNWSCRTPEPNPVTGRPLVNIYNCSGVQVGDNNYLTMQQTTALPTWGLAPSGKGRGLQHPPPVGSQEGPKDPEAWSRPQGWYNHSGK

Molecular target: T1, GST-TRIM34 (UniProt Q9BYJ4)
T1 sequence: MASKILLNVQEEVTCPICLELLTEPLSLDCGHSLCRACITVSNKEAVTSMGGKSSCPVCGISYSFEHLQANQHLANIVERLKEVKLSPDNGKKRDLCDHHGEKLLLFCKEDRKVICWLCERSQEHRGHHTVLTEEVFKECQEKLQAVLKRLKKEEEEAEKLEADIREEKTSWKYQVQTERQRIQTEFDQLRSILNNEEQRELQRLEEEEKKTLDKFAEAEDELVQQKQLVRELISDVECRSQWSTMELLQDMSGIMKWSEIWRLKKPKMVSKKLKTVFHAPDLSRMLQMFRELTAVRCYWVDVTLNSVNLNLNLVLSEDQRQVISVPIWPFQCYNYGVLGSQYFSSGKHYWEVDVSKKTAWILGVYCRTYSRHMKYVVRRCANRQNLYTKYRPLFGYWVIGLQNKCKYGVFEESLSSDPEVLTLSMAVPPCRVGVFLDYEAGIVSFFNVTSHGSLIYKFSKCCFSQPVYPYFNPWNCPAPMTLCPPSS
Test: pull-down; purified GST-TRIM34, His-RIPK3 and His-ZBP1 mixed (3.2 nM) in various combinations, immunoprecipitated with the indicated antibody, Western blot; both purified

His-RIPK3 (from UniProt Q9Y572 1-518)
binding: no binding (tested: 3.2 nM)
